# Measurements reported in US10538534B2 (Colorado State University Research Foundation, priority 2015, dated 2020).
# Sequences of proteins named here, by UniProt entry; tags and fusion partners are left off. A change or cut given only in a name is not applied to a line headed by its entry.
# UniProt O15379: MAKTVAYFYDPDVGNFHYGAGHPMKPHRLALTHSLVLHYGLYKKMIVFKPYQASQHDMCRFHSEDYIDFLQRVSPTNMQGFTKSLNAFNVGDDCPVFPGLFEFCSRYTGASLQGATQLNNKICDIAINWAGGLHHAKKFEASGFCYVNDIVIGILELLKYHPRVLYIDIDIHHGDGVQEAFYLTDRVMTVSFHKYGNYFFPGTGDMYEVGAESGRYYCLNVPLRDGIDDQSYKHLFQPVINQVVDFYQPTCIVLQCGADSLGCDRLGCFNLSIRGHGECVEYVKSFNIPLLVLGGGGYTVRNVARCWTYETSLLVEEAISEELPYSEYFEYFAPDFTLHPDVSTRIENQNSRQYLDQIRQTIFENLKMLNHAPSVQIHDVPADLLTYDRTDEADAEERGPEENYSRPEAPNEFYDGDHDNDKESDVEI
# UniProt Q9UBN7: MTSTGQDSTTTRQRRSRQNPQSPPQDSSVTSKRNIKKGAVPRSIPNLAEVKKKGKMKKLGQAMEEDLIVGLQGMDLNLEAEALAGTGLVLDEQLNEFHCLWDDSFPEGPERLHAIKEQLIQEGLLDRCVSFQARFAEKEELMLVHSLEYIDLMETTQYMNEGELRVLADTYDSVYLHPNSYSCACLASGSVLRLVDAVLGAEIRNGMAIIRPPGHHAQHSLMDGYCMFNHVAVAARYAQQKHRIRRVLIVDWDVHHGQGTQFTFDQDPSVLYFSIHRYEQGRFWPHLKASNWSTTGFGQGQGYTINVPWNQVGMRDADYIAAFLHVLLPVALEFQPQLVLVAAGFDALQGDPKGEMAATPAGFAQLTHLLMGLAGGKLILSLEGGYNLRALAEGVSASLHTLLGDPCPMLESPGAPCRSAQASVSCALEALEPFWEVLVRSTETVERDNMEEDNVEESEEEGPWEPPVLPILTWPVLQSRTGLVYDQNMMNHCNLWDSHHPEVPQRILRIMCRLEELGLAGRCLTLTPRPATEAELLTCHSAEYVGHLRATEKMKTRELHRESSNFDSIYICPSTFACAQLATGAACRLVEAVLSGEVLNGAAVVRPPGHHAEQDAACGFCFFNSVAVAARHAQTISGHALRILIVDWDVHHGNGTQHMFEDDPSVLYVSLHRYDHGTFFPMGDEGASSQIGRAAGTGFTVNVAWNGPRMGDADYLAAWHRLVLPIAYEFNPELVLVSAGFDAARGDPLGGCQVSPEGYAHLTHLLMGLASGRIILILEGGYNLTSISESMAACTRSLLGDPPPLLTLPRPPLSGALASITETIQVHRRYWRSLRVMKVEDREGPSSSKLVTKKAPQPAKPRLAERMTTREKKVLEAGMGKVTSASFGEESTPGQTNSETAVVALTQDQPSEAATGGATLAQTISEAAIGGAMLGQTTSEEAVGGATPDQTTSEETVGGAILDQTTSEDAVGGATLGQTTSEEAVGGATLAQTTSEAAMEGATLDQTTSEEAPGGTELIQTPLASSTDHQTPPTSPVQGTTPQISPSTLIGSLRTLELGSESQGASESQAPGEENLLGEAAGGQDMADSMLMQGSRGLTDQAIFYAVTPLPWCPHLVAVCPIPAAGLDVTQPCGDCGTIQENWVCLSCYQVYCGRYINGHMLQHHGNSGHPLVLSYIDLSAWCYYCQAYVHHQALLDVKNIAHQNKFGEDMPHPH
# How the values were obtained:
# HDAC3 = HDAC3 (Homo sapiens, UniProt O15379); assay: Biochemical profiling for HDACi activity, miniaturized assay platform (HDAC1-9)
# Description: (§1) The pyridyl derivatives were also tested in the 797 and 10326 NUT midline carcinoma cell lines.
# HDAC6 = HDAC6 (Homo sapiens, UniProt Q9UBN7); settings: compared with IC50 for HDACs 1-3
# Description: as §1
compound,measurement,setting,value
CCCCCCCC(=O)SCC/C=C/[C@@H]1CC(=O)NCc2nc(cs2)C2=N[C@@](C)(CS2)C(=O)N[C@@H](C(C)C)C(=O)O1 [Largazole],IC50,HDAC3,< 20 nM
same,IC50 HDAC6,HDAC6,much higher
